{"source": "PubChem BioAssay AID1259405 (NCATS, 2018)", "test": "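Knock-downs that lift recombinant protein yield in hamster ovary cells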 (primary screen)", "system": "Chinese hamster CHO-K1 ovary cells with stable secreted eGFP expression", "knock-down reagent": "single siRNA against mouse genes, 0.8 pmol siRNA per well (2 µl of 400 nM stock)", "timing": "3 days", "detection": "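Per-well intracellular GFP measured by laser scanning cytometry, plus viability from ATP luminescence, each relative to plate median of non-targeting control wells, in %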", "reading the numbers": "GFP, % of control: higher = more GFP per well, higher productivity; viability (ATP), % of control: higher = more viable cells (more ATP)", "rule for the call": "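a knock-down is called active if GFP reaches 120% or more of non-targeting control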", "note": "The deposit covers about 50,000 reagents; this is a part drawn at random. In the full data, about 4,000 (8%) are marked active. 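Mouse siRNA library applied to hamster cells; one well for each siRNA.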 The numbers tell different reagents against one gene apart. Reagent sequences are not shown."}
{"gene symbol": "Rnf10 (GeneID 50849)", "reagent no.": 1, "GFP, % of control": 112, "viability (ATP), % of control": 106, "call": "inactive"}
{"gene symbol": "Rnf10 (GeneID 50849)", "reagent no.": 2, "GFP, % of control": 50.6, "viability (ATP), % of control": 50, "call": "inactive"}
{"gene symbol": "Rnf10 (GeneID 50849)", "reagent no.": 3, "GFP, % of control": 72.1, "viability (ATP), % of control": 72.8, "call": "inactive"}
{"gene symbol": "1700092C17Rik (GeneID 74295)", "reagent no.": 1, "GFP, % of control": 104, "viability (ATP), % of control": 115, "call": "inactive"}
{"gene symbol": "1700092C17Rik (GeneID 74295)", "reagent no.": 2, "GFP, % of control": 49.2, "viability (ATP), % of control": 50.5, "call": "inactive"}
{"gene symbol": "1700092C17Rik (GeneID 74295)", "reagent no.": 3, "GFP, % of control": 72.2, "viability (ATP), % of control": 69.8, "call": "inactive"}
{"gene symbol": "Ca10 (GeneID 72605)", "reagent no.": 1, "GFP, % of control": 106, "viability (ATP), % of control": 110, "call": "inactive"}
{"gene symbol": "Ca10 (GeneID 72605)", "reagent no.": 2, "GFP, % of control": 107, "viability (ATP), % of control": 97, "call": "inactive"}
{"gene symbol": "Lypd1 (GeneID 72585)", "reagent no.": 1, "GFP, % of control": 79.3, "viability (ATP), % of control": 123, "call": "inactive"}
{"gene symbol": "Lypd1 (GeneID 72585)", "reagent no.": 2, "GFP, % of control": 57.6, "viability (ATP), % of control": 96.4, "call": "inactive"}
{"gene symbol": "Psmg1 (GeneID 56088)", "reagent no.": 1, "GFP, % of control": 102, "viability (ATP), % of control": 88.1, "call": "inactive"}
{"gene symbol": "Psmg1 (GeneID 56088)", "reagent no.": 2, "GFP, % of control": 86.9, "viability (ATP), % of control": 34.5, "call": "inactive"}
{"gene symbol": "Psmg1 (GeneID 56088)", "reagent no.": 3, "GFP, % of control": 247, "viability (ATP), % of control": 79.8, "call": "active"}
{"gene symbol": "Or52e8 (GeneID 257910)", "reagent no.": 1, "GFP, % of control": 82, "viability (ATP), % of control": 51.3, "call": "inactive"}
{"gene symbol": "Or52e8 (GeneID 257910)", "reagent no.": 2, "GFP, % of control": 57.4, "viability (ATP), % of control": 67.3, "call": "inactive"}
{"gene symbol": "Or52e8 (GeneID 257910)", "reagent no.": 3, "GFP, % of control": 77.2, "viability (ATP), % of control": 80.2, "call": "inactive"}
{"gene symbol": "Arsk (GeneID 77041)", "reagent no.": 1, "GFP, % of control": 80.3, "viability (ATP), % of control": 85.8, "call": "inactive"}
{"gene symbol": "Arsk (GeneID 77041)", "reagent no.": 2, "GFP, % of control": 41.6, "viability (ATP), % of control": 37.8, "call": "inactive"}
{"gene symbol": "Arsk (GeneID 77041)", "reagent no.": 3, "GFP, % of control": 119, "viability (ATP), % of control": 89.7, "call": "inactive"}
{"gene symbol": "Baz2a (GeneID 116848)", "reagent no.": 1, "GFP, % of control": 109, "viability (ATP), % of control": 112, "call": "inactive"}
{"gene symbol": "Baz2a (GeneID 116848)", "reagent no.": 2, "GFP, % of control": 135, "viability (ATP), % of control": 118, "call": "active"}
{"gene symbol": "Baz2a (GeneID 116848)", "reagent no.": 3, "GFP, % of control": 122, "viability (ATP), % of control": 96.5, "call": "active"}
{"gene symbol": "Plekha7 (GeneID 233765)", "reagent no.": 1, "GFP, % of control": 111, "viability (ATP), % of control": 81.3, "call": "inactive"}
{"gene symbol": "Plekha7 (GeneID 233765)", "reagent no.": 2, "GFP, % of control": 90.9, "viability (ATP), % of control": 65.2, "call": "inactive"}
{"gene symbol": "Plekha7 (GeneID 233765)", "reagent no.": 3, "GFP, % of control": 103, "viability (ATP), % of control": 72.1, "call": "inactive"}
{"gene symbol": "Lhx9 (GeneID 16876)", "reagent no.": 1, "GFP, % of control": 61.4, "viability (ATP), % of control": 50.1, "call": "inactive"}
{"gene symbol": "Lhx9 (GeneID 16876)", "reagent no.": 2, "GFP, % of control": 80.2, "viability (ATP), % of control": 94.5, "call": "inactive"}
{"gene symbol": "Lhx9 (GeneID 16876)", "reagent no.": 3, "GFP, % of control": 88.1, "viability (ATP), % of control": 91.8, "call": "inactive"}
